According to patent publication US20140073658A1, “Dipyridylamine Derivative” (Daiichi Sankyo Company, Limited, priority 2011, published 2014):
Some of these results come from one statement about several compounds together. At least one structure is not confirmed: it was looked up by name or label, or the drawing left a doubt.

What follows are compounds tested against T1, human pancreatic GK (human glucokinase variant 1, GST-fused) (Homo sapiens, UniProt P35557) (assay: GK activity test (GK activation ratio)). Settings: test compound concentration 10 μM; glucose final concentration 5 mM; 30 minutes at room temperature; absorbance 340 nm.
T1 construct: GST; made in house; host or cells: Escherichia coli (such as BL21)
T1 sequence (P35557 1-465): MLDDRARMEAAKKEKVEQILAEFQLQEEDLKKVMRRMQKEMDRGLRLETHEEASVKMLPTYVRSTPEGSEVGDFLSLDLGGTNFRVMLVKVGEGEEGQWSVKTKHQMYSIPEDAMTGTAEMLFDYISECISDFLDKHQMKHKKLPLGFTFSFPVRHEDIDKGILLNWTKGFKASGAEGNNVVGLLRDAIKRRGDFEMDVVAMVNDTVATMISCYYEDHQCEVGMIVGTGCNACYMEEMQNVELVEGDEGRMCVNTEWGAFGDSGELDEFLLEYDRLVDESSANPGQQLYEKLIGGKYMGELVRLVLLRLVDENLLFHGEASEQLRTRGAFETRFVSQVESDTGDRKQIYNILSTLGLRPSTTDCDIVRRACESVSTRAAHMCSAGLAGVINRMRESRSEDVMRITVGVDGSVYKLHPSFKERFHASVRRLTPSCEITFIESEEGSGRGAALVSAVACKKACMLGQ
Type: biochemical

| Structure (SMILES) | GK activation ratio (absorbance after reacting for 30 minutes when test compound added)/(when test compound not added) |
| --- | --- |
| CCc1cnc(Nc2ccc(-c3nnn[nH]3)cn2)c(Oc2ccc(F)cc2F)c1 [Example 48, [5-Ethyl-3-(2,4-difluorophenoxy)pyridin-2-yl]-[5-(1H-tetrazol-5-yl)pyridin-2-yl]amine] | ≥ 1.4 times |
| CCc1cnc(Nc2ccc(-c3noc(=O)[nH]3)cn2)c(Oc2ccc(F)cc2F)c1 [Example 49, 3-{6-[5-Ethyl-3-(2,4-difluorophenoxy)pyridin-2-ylamino]pyridin-3-yl}-4H-[1,2,4]oxadiazol-5-one] | ≥ 1.4 times |
| COCCCSc1cnc(Nc2ccc(-c3noc(=O)[nH]3)cn2)c(Oc2ccc(F)c(F)c2)c1 [Example 50, 3-{6-[3-(3,4-Difluorophenoxy)-5-(3-methoxypropylsulfanyl)pyridin-2-ylamino]pyridin-3-yl}-4H-[1,2,4]oxadiazol-5-one] | ≥ 1.4 times |
| COCCC(C)Sc1cnc(Nc2ccc(-c3nnn[nH]3)cn2)c(Oc2ccc(F)cc2)c1 (centres unmarked) [Example 51, [3-(4-Fluorophenoxy)-5-(3-methoxy-1-methylpropylsulfanyl)pyridin-2-yl]-[5-(1H-tetrazol-5-yl)pyridin-2-yl]amine] | ≥ 1.4 times |
| COCCCCc1cnc(Nc2ccc(-c3nnn[nH]3)cn2)c(Oc2ccc(F)cc2F)c1 [Example 52, [3-(2,4-Difluorophenoxy)-5-(4-methoxybutyl)pyridin-2-yl]-[5-(1H-tetrazol-5-yl)pyridin-2-yl]amine] | ≥ 1.4 times |
| COCCCCc1cnc(Nc2ccc(-c3nnn[nH]3)cn2)c(Oc2ccc(F)cc2)c1 [Example 53, [3-(4-Fluorophenoxy)-5-(4-methoxybutyl)pyridin-2-yl]-[5-(1H-tetrazol-5-yl)pyridin-2-yl]amine] | ≥ 1.4 times |
| Fc1ccc(Oc2cc(CCC3CC3)cnc2Nc2ccc(-c3nnn[nH]3)cn2)cc1 [Example 54, [5-(2-Cyclopropylethyl)-3-(4-fluorophenoxy)pyridin-2-yl]-[5-(1H-tetrazol-5-yl)pyridin-2-yl]amine] | ≥ 1.4 times |
| Fc1ccc(Oc2cc(CCC3CC3)cnc2Nc2ccc(-c3nnn[nH]3)cn2)c(F)c1 [Example 55, [5-(2-Cyclopropylethyl)-3-(2,4-difluorophenoxy)pyridin-2-yl]-[5-(1H-tetrazol-5-yl)pyridin-2-yl]amine] | ≥ 1.4 times |
| CCCCCc1cnc(Nc2ccc(-c3nnn[nH]3)cn2)c(Oc2ccc(F)cc2F)c1 [Example 56, [3-(2,4-Difluorophenoxy)-5-pentylpyridin-2-yl]-[5-(1H-tetrazol-5-yl)pyridin-2-yl]amine] | ≥ 1.4 times |
| Fc1ccc(Oc2cc(C(F)(F)F)cnc2Nc2ccc(-c3nnn[nH]3)cn2)cc1 [Example 57, [3-(4-Fluorophenoxy)-5-(trifluoromethyl)pyridin-2-yl]-[5-(1H-tetrazol-5-yl)pyridin-2-yl]amine] | ≥ 1.4 times |
| Fc1ccc(Oc2cc(C3CC3)cnc2Nc2ccc(-c3nnn[nH]3)cn2)c(F)c1 [Example 58, [3-(2,4-Difluorophenoxy)-5-cyclopropylpyridin-2-yl]-[5-(1H-tetrazol-5-yl)pyridin-2-yl]amine] | ≥ 1.4 times |
| Fc1ccc(Oc2cc(C(F)(F)F)cnc2Nc2ccc(-c3nnn[nH]3)cn2)c(Cl)c1 [Example 59, [3-(2-Chloro-4-fluorophenoxy)-5-(trifluoromethyl)pyridin-2-yl]-[5-(1H-tetrazol-5-yl)pyridin-2-yl]amine] | ≥ 1.4 times |
| Fc1ccc(Oc2cc(C(F)(F)F)cnc2Nc2ccc(-c3nnn[nH]3)cn2)cc1F [Example 60, [3-(3,4-Difluorophenoxy)-5-(trifluoromethyl)pyridin-2-yl]-[5-(1H-tetrazol-5-yl)pyridin-2-yl]amine] | ≥ 1.4 times |
| CCCc1cnc(Nc2ccc(-c3nnn[nH]3)cn2)c(Oc2ccc(F)cc2F)c1 [Example 61, [5-n-Propyl-3-(2,4-difluorophenoxy)pyridin-2-yl]-[5-(1H-tetrazol-5-yl)pyridin-2-yl]amine] | ≥ 1.4 times |
| CC(C)Cc1cnc(Nc2ccc(-c3nnn[nH]3)cn2)c(Oc2ccc(F)cc2F)c1 [Example 62, [5-(2-Methylpropyl)-3-(2,4-difluorophenoxy)pyridin-2-yl]-[5-(1H-tetrazol-5-yl)pyridin-2-yl]amine] | ≥ 1.4 times |
| CC(C)c1cnc(Nc2ccc(-c3nnn[nH]3)cn2)c(Oc2ccc(F)cc2F)c1 [Example 63, [5-(1-Methylethyl)-3-(2,4-difluorophenoxy)pyridin-2-yl]-[5-(1H-tetrazol-5-yl)pyridin-2-yl]amine] | ≥ 1.4 times |
| CCCCc1cnc(Nc2ccc(-c3nnn[nH]3)cn2)c(Oc2ccc(F)cc2F)c1 [Example 64, [5-Butyl-3-(2,4-difluorophenoxy)pyridin-2-yl]-[5-(1H-tetrazol-5-yl)pyridin-2-yl]amine] | ≥ 1.4 times |
